This is an account of results in PubChem BioAssay AID493014 (National Center for Advancing Translational Sciences (NCATS), 2011).

A short description of this test: qHTS Assay to Find Inhibitors of Chronic Active B-Cell Receptor Signaling. The settings on record: ABC-DLBCL IkBa-CBG/CBR reporter, luminescence ratio (green luciferase fused to IkBa over red control in TMD8 lymphoma cells), 4 h. An excerpt: NIH Molecular Libraries Probe Production Network [MLPCN] NIH Chemical Genomics Center [NCGC] MLPCN Grant: 1 R03 DA031086-01A1 PI Name: Dr. R. Eric Davis NCGC Assay Overview: Diffuse large B-cell lymphoma (DLBCL) is the most common category of non-Hodgkin lymphoma, with ~20,000 new cases per year in the United States. DLBCL should be regarded as a collection of different neoplasms. Microarray gene expression analysis has defined two principal types of DLBCL, named for their similarity to normal B cell stages or activation states: a germinal center B-cell (GCB) type, and an activated B-cell (ABC) type. In ABC-DLBCL, a constitutive high-level activity of the NF-kappaB family of transcription factors has been observed (1) and NF-kappaB target genes are more highly expressed in ABC primary tumors than in GCB tumors. Functional studies have shown a constitutive high-level activity of the IkappaB (inhibitor of kappa-B) kinase (IKK) complex. […] Further analysis of DLBCL primary tumors for NF-kappaB target gene expression imply that although CARD11 is required for constitutive IKK activity in all ABC-DLBCL lines, mutations in CARD11 may be the root cause of IKK activation only in lines or tumors with such mutations. In other words, CARD11 mutations may explain NF-kappaB activation in only 10% of ABC-DLBCL cases. […] This process has been termed 'chronic active BCR signaling' (CABS). The goal of this screen is to find small-molecule inhibitors of the CABS pathway found in ABC-DLBCL lines using a cell-based assay that measures IkappaBalpa stability, which has already been extensively validated in the OCI-Ly3 line (PubChem AID:445; REF: 4). […] The assay uses green (CBG68) and red (CBR) emitting beetle luciferases [Chroma-GloTM developed by Promega Corp.] where the green luciferase is fused to IkappaBalpha and the red luciferase is present in its native state. Both luciferase genes are stably present in the TMD8 human ABC DLBCL cell line, but their expression is under the control of tetracycline-inducible promoters. Following the addition of doxycycline to induce expression of the luciferases, the green luminescence in control cultures rises only slowly because the CBG fusion partner IkappaBalpha is targeted by IKK activity for rapid degradation. In contrast, green luminescence rises rapidly in the presence of proteasome inhibitors or IKK inhibitors. The rise in red luminescence of CBR is not affected by proteasome or IKK inhibitors, and serves as normalization for cell number and nonspecific effects. Compounds were screened as a concentration-titration series that ranged from 46 uM to 3 nM.
NCGC Assay Protocol Summary: Cells were seeded in 1536-well plates at 5000 cells/4uL in IMDM medium containing 0.5% FBS, w/o phenol red, 1% penicillin/streptomycin. Then, 23 nL of compounds or DMSO were delivered to each well using a pin tool. One uL 20ng/ml doxycycline was then dispensed into white solid 1536-well plates and the plates were incubated at 37C/5% C02 in a cell incubator for 4 hrs. Then 4 uL luminescent substrate mix (in-house prepared: 150 mM Tris-Cl, pH 7.6, 3 mM MgCl2, 1% Triton X-100, 5 mM DTT, 0.2 mM CoA, 0.15 mM ATP, 5 mM D-luciferin, final concentrations) was added to each well. The plate was incubated at r.t. for 10-15 min. The plates were measured on a ViewLux plate reader for green luminescence (540/20 nm filter) and red luminescence (618/8 nm filter). The green and red luminescent signals were corrected for red and green luminescence filter overlap using previously determined filter calibration constants (determined using the procedure outlined in the Promega Technical Manual; REF 4). The %Activity was determined from the ratio of corrected green/red luminescent values. MG132 were used as control. […] Red luminescent %Activity was normalized to the difference between red luminesence in basal cells (0%Activity) and zero luminescence (-100% Activity). […]

Where [1] appears, read: measured here: CBR red luminescence, cell number.
The mark [2] stands for this setting: measured here: IkBa-CBG green luminescence.

SMILES strings stand for the structures. Some of the results follow. These are further read-outs of the screen, such as a control signal, another cell line or another target. No call is given for them. Most of these compounds were active or inconclusive in the main read-out, so they are no random draw. The note in brackets gives the kind of curve behind each potency; many fits are weak.

The AC50 is the concentration giving half of the maximal activity seen. With `COc1ccc(CNC(=O)CN2C(=O)C3CCCN3c3ncc(Cl)cc32)cc1` (stereo not drawn), under setting [1], the half-maximal activity concentration (AC50) was 0.291 µM [falling, full curve, poor fit].

On to `O=S(=O)([N-]c1nc2ccccc2nc1-[n+]1ccc(Cc2ccccc2)cc1)c1ccc(Br)s1`, for which the AC50 under setting [1] is 35.5 µM [falling, single point].

Take `Cc1ccc(CN(c2ccc(C(=O)N3CCCC3)cc2)S(C)(=O)=O)cc1`: the half-maximal activity concentration (AC50) under setting [1] is 7.08 µM [rising, partial curve, poor fit].

With `CC1(C2(O)CC(c3ccccc3)ON2)CCCCC1` (stereo not drawn), the AC50 under setting [1] is 16.4 µM [rising, partial curve].

Regarding `COC(=O)C(C)C1Sc2ccccc2NC1=O` (stereo not drawn), the concentration at half-maximal activity (AC50) under setting [1] is 29.1 µM [rising, single point].

Regarding `CCOc1ccc(OCc2ccc(C(=O)NN=Cc3ccc[nH]3)cc2)cc1`, under setting [1], the concentration at half-maximal activity (AC50) is 8.2 µM [falling, single point].

As for `Cc1nc2sc(C(c3cccc(F)c3)N3CCCCC3)c(O)n2n1` (stereo not drawn), the AC50 under setting [1] is 0.411 µM [rising, full curve, poor fit].

On to `Cc1ccc(C)c(NC(=S)N2CCN(S(C)(=O)=O)CC2)c1`, for which the concentration at half-maximal activity (AC50) under setting [1] is 3.16 µM [falling, partial curve, poor fit].

Take `NC(=O)c1ccccc1N/C=C/C(=O)c1ccc(Cl)cc1`: under setting [1], the AC50 was 2.31 µM [falling, full curve].

For `COc1ccc(C)cc1NC(=O)C(Sc1nnc(-c2ccncc2)n1-c1ccc(Cl)cc1)c1ccccc1` (stereo not drawn), the concentration at half-maximal activity (AC50) under setting [1] is 29.1 µM [falling, single point].

For the compound `Cc1ccc(C(=O)NC(=S)N2CCCCCC2)cc1`, under setting [1], the half-maximal activity concentration (AC50) is 0.82 µM [rising, full curve, poor fit].

`CC(=O)c1ccc(N2CCN(C(=O)c3cc4c(-c5ccccc5F)nn(C)c4s3)CC2)cc1`: the AC50 was 16.4 µM [falling, single point] under setting [1] and 18.4 µM [rising, partial curve, poor fit] under setting [2].

On to `CC1(C)CC(=O)C(C=NCCc2ccccn2)=C(O)C1`, for which the concentration at half-maximal activity (AC50) under setting [1] was 3.66 µM [rising, partial curve, poor fit].

For the compound `O=C(N/N=C/c1cccnc1)c1ccccc1OCc1cccc(Br)c1`, the AC50 under setting [1] is 1.78 µM [falling, full curve].

Consider `c1ccc2c(c1)COC(CNC1CCCCC1)OC2`, for which the concentration at half-maximal activity (AC50) under setting [1] was 17.8 µM [rising, partial curve, poor fit].

For the compound `CSc1ccc(OC2CCCCC2NS(=O)(=O)c2ccc(Cl)cc2)cc1` (stereo not drawn), under setting [1], the half-maximal activity concentration (AC50) is 3.66 µM [rising, single point].

Consider `O=C(CSc1cn(Cc2ccccc2)c2ccccc12)Nc1nccs1`, for which, under setting [1], the AC50 is 3.66 µM [falling, partial curve, poor fit].

Turning to `CCNC(=O)Nn1c(C)nnc1C`, under setting [1], the concentration at half-maximal activity (AC50) was 23.1 µM [rising, single point].

In the case of `COc1ccc(-c2nn3c(C4CCCCC4)nnc3s2)cc1OC`, under setting [2], the AC50 is 6.31 µM [falling, partial curve, poor fit].

Take `c1ccc(-c2ncc(CN3CCN(c4ccccn4)CC3)[nH]2)cc1`: the AC50 under setting [1] was 0.501 µM [rising, full curve, poor fit].

In the case of `COc1ccc(CCNC(=O)CS(=O)(=O)c2cn(CC(=O)N(C(C)C)C(C)C)c3ccccc23)cc1OC`, the concentration at half-maximal activity (AC50) under setting [1] is 3.98 µM [rising, partial curve, poor fit].

With `CC(=O)Nc1ccc(NC(=O)COc2c(C)cc(Br)cc2C)cc1`, the AC50 under setting [1] is 8.91 µM [falling, partial curve, poor fit].

`Cc1nc2ccccc2cc1OCc1ccc(Cl)cc1`: the AC50 under setting [1] was 0.146 µM [rising, full curve, poor fit].

`CCCc1cc(C(=O)Nc2ccc(F)cc2F)no1`: the AC50 under setting [1] was 2.91 µM [falling, partial curve, poor fit].

In the case of `CC(=O)Nc1cccc(NC(=O)c2ccccc2OCc2ccccc2)c1`, the AC50 under setting [1] was 8.91 µM [falling, partial curve].

Regarding `COC(=O)/C=C1/S/C(=N/NC(=O)c2ccccc2OC)NC1=O`, the concentration at half-maximal activity (AC50) under setting [1] was 10 µM [falling, partial curve].

On to `COc1cc2c(cc1NC(=S)NC(=O)/C=C/c1ccco1)oc1ccccc12`, for which, under setting [1], the AC50 was 10.3 µM [falling, partial curve, poor fit].

Turning to `CC(=O)Oc1ccc(N2C(=O)C3C4C=CC(O4)C3C2=O)cc1` (stereo not drawn), the concentration at half-maximal activity (AC50) under setting [1] was 35.5 µM [falling, single point].

Turning to `COCCNC(=O)c1csc(Nc2cccc3ccccc23)n1`, the AC50 under setting [1] is 12.6 µM [falling, partial curve, poor fit].

With `Clc1ccccc1C1=Nn2c(nnc2-c2ccncc2)SC1`, the half-maximal activity concentration (AC50) under setting [1] is 12.6 µM [falling, single point].

For the compound `COCC1CCN(C(=O)c2cc(COc3ccc(C)c(C)c3)on2)C1` (stereo not drawn), the concentration at half-maximal activity (AC50) under setting [1] is 12.6 µM [falling, partial curve, poor fit].

On to `COC(=O)c1c(NC(=O)COC(=O)[C@@H](NS(=O)(=O)c2cccc(Cl)c2)C(C)C)sc2c1CCC2`, for which, under setting [1], the AC50 is 8.2 µM [falling, partial curve].
